Results from the supplement of paper PMC10849652.
The list shows a part of the results.

Sequences of proteins named here, by UniProt entry; tags and fusion partners are left off. A change or cut given only in a name is not applied to a line headed by its entry.
UniProt P13716: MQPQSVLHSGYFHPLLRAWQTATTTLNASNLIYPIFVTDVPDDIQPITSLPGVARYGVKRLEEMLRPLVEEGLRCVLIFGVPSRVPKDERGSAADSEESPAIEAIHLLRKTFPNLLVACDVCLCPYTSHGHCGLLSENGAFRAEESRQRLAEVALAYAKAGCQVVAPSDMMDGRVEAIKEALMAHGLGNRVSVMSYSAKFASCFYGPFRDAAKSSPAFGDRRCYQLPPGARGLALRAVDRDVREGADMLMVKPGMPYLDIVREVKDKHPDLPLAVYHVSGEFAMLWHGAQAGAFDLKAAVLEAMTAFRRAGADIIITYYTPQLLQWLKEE
UniProt Q6ULP2: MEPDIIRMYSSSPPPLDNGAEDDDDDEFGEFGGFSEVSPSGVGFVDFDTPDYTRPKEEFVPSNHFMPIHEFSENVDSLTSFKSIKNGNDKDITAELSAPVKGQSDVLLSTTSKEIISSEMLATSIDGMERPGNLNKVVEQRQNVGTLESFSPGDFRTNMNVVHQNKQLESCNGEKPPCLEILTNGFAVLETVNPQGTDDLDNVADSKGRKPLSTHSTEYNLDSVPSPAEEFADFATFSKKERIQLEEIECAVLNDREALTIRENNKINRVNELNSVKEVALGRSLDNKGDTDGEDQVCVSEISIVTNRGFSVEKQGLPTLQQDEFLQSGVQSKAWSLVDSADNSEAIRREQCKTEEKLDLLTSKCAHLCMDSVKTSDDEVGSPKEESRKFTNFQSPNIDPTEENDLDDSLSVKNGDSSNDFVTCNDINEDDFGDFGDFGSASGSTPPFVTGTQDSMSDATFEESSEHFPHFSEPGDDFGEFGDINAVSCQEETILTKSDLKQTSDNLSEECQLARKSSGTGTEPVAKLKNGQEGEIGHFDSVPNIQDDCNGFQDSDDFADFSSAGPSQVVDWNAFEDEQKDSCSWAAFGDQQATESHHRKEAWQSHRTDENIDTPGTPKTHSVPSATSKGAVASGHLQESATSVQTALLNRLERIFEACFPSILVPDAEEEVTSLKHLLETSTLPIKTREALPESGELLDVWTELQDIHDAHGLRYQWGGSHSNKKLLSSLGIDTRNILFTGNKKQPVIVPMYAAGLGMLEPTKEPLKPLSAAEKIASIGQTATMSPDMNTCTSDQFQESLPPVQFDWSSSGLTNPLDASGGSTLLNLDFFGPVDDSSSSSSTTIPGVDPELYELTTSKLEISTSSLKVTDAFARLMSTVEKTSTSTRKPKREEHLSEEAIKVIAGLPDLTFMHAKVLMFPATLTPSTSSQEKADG
UniProt Q9UIJ7: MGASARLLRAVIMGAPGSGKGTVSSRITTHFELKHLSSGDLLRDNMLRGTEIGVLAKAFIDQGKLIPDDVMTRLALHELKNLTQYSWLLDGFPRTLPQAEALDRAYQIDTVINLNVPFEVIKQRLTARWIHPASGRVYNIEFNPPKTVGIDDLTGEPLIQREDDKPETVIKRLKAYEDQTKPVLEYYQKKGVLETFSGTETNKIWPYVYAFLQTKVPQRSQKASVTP
UniProt Q9BV57: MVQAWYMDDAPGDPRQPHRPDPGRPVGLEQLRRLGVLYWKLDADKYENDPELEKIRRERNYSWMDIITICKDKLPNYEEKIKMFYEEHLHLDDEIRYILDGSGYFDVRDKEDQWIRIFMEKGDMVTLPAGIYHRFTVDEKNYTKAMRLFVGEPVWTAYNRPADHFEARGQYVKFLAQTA
UniProt Q02952: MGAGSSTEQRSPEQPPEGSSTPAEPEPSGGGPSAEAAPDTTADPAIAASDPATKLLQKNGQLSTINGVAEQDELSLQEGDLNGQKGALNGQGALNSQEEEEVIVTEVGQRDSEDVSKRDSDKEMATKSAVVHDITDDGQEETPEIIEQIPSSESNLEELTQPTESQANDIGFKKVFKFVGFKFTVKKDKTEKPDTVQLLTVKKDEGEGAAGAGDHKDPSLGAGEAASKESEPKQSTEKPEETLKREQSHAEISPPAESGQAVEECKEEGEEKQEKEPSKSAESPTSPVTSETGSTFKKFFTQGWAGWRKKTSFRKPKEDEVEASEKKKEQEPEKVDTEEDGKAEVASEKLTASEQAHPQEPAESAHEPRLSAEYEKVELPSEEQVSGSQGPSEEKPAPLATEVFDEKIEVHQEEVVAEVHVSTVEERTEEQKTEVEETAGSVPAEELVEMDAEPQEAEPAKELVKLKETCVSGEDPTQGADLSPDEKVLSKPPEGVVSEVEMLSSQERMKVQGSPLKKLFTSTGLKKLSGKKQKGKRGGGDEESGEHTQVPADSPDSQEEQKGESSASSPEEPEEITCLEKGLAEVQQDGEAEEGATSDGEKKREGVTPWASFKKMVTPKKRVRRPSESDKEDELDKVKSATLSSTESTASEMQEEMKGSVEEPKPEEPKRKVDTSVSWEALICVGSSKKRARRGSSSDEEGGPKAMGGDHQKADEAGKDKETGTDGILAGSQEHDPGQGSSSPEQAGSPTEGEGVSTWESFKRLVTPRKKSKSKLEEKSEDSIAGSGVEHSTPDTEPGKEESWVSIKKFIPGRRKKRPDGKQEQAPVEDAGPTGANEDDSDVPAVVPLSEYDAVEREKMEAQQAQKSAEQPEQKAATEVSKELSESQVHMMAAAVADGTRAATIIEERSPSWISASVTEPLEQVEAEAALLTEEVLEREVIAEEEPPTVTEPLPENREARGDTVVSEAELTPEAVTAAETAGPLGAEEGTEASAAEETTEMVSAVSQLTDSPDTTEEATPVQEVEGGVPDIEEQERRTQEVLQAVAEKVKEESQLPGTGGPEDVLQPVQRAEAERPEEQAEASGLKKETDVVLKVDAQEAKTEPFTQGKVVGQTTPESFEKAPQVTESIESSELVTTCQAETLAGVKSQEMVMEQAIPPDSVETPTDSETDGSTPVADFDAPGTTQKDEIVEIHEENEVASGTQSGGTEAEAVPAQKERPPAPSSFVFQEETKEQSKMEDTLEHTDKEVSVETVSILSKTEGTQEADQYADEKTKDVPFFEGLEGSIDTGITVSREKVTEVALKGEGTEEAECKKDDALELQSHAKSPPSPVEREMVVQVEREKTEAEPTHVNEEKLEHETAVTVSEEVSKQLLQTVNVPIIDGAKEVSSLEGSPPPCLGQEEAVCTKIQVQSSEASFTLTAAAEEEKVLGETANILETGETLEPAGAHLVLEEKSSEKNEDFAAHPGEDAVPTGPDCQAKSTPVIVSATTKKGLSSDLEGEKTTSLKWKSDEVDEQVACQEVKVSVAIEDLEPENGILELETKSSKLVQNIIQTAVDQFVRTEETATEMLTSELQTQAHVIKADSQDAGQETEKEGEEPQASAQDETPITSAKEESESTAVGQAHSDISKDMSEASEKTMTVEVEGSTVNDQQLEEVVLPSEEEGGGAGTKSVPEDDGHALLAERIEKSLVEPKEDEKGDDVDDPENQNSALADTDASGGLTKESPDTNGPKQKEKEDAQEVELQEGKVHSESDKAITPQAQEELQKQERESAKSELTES
UniProt O95831, whole entry, looked up: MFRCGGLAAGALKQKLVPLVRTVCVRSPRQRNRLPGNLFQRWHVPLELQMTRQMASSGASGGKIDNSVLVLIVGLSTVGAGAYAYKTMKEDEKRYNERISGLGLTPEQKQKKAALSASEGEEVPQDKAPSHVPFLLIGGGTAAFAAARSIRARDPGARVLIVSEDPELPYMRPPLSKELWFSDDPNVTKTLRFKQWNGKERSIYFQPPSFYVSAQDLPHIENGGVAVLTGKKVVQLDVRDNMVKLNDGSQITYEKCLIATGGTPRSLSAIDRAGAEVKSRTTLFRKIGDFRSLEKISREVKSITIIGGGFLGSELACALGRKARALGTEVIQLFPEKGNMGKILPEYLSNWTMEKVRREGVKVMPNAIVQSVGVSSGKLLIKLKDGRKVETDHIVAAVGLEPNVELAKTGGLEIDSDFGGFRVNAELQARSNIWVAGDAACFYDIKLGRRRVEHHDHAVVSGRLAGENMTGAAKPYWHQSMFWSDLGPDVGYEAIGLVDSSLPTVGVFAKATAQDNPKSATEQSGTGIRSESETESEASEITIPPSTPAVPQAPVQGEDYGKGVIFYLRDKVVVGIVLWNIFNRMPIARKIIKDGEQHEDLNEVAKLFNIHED
UniProt P51649: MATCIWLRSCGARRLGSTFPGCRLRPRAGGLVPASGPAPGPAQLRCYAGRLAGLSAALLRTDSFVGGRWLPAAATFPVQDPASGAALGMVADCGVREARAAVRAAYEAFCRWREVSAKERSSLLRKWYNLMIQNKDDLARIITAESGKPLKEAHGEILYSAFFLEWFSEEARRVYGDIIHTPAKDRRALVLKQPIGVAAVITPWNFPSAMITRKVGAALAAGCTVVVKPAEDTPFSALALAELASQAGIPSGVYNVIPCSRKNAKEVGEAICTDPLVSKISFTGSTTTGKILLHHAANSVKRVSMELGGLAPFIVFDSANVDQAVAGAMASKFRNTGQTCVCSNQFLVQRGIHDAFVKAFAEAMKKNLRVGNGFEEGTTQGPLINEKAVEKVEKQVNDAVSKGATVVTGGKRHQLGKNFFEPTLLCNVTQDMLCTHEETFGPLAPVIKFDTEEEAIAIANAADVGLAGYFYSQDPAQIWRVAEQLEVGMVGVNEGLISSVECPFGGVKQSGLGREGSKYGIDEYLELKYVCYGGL
UniProt P30038: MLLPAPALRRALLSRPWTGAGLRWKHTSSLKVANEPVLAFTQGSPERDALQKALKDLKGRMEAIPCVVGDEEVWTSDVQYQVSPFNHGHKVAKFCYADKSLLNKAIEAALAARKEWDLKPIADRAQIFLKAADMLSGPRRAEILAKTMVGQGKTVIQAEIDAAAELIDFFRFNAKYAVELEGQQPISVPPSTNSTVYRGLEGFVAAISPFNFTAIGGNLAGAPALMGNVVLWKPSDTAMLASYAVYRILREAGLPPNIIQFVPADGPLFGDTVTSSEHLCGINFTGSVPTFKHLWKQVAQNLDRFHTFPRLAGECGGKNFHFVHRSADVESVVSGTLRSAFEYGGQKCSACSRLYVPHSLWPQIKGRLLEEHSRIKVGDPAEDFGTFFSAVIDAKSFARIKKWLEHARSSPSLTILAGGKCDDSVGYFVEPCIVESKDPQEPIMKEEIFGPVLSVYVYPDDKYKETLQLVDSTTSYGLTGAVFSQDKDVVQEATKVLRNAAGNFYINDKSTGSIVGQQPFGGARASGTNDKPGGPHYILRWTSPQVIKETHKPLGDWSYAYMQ
UniProt P09972: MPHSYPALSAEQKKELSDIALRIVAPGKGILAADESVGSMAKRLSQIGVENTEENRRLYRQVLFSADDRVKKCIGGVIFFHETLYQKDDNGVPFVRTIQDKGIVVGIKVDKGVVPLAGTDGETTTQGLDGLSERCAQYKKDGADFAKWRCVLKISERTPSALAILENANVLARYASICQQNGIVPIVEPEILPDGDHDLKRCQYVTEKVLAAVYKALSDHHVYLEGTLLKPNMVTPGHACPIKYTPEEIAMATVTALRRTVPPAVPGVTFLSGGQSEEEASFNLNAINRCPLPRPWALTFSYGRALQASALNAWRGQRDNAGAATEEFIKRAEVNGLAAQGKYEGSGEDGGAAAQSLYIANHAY
UniProt P00352: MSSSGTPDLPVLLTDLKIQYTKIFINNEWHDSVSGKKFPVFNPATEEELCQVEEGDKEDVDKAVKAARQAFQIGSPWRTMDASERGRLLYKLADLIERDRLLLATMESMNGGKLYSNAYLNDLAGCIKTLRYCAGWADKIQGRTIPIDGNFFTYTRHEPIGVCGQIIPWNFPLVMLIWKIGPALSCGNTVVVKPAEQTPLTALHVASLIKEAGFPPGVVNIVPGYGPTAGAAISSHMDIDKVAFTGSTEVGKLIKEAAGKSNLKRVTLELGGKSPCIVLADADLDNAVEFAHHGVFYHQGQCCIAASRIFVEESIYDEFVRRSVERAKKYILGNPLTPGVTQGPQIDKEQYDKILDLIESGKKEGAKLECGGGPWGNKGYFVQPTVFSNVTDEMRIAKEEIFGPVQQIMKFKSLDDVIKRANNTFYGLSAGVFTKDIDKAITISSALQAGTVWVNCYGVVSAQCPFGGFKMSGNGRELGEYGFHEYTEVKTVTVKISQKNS
UniProt Q5I7T1: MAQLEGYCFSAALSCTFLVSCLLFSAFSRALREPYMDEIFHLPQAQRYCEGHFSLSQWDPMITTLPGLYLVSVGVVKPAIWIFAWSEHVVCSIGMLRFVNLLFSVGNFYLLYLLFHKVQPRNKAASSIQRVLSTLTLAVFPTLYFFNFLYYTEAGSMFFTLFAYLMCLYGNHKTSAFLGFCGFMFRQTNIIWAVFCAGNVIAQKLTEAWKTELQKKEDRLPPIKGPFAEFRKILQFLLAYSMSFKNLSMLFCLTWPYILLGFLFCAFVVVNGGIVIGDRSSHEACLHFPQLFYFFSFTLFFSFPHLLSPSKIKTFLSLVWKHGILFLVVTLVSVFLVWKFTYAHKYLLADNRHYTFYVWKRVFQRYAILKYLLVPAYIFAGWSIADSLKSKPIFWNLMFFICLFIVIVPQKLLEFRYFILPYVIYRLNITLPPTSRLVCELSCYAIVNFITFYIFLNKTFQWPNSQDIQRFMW

How the values were obtained:
Test in all cases: log2 fold change, soluble protein after heating vs DMSO (PISA); higher = thermal stabilisation; K562 cells, 10 uM, 30 min; active = over 0.2 and 3.5 SD of the protein, either way, in both replicates (recomputed)
[1] = compound: COC1=CC=C(C=C1)CN2C=CC3=C2C=C(C=C3)C(=O)NO
Procedure, shortened: (§1)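 For each measurement, 10 μM compound was applied for 30 min to K562 cells at 2×10^6 cells/mL. Aliquots were heated for 3 min across 48°C-58°C, pooled, and extracted in PBS with 0.5% NP-40 at 4°C; the supernatant after 21,000xg for 90 min was soluble protein. This was quantified by TMTpro 16plex LC-MS/MS with channel sums equalised, and thermal stability was reported relative to control samples from duplicates, on a log2 fold-change scale.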

filanesib = compound: CON(C)C(=O)N1N=C(c2cc(F)ccc2F)S[C@@]1(CCCN)c1ccccc1 [filanesib]
Procedure, shortened: as §1

zotarolimus = compound: CO[C@H]1C[C@@H]2CC[C@@H](C)[C@@](O)(O2)C(=O)C(=O)N2CCCC[C@H]2C(=O)O[C@H]([C@H](C)C[C@@H]2CC[C@H](n3cnnn3)[C@H](OC)C2)CC(=O)[C@H](C)/C=C(\C)[C@@H](O)[C@@H](OC)C(=O)[C@H](C)C[C@H](C)/C=C/C=C/C=C/1C [zotarolimus]
Procedure, shortened: as §1

idasanutlin = compound: COc1cc(C(=O)O)ccc1NC(=O)[C@@H]1N[C@@H](CC(C)(C)C)[C@](C#N)(c2ccc(Cl)cc2F)[C@H]1c1cccc(Cl)c1F [idasanutlin]
Procedure, shortened: as §1

alisertib = compound: COc1cc(Nc2ncc3c(n2)-c2ccc(Cl)cc2C(c2c(F)cccc2OC)=NC3)ccc1C(=O)O [alisertib]
Procedure, shortened: as §1

[2] = compound: COc1cc2nc(-c3cc(F)ccc3O)nc(N[C@@H]3CNC[C@H]3C(C)(C)O)c2cc1OC
Procedure, shortened: as §1

gefitinib = compound: COc1cc2ncnc(Nc3ccc(F)c(Cl)c3)c2cc1OCCCN1CCOCC1 [gefitinib]
Procedure, shortened: as §1

[3] = compound: COc1cccc2cc(-c3nc([C@H]4CC[C@H](C(=O)O)CC4)n4ncnc(N)c34)[nH]c12
Procedure, shortened: as §1

lapatinib = compound: CS(=O)(=O)CCNCc1ccc(-c2ccc3ncnc(Nc4ccc(OCc5cccc(F)c5)c(Cl)c4)c3c2)o1 [lapatinib]
Procedure, shortened: as §1

pictilisib = compound: CS(=O)(=O)N1CCN(Cc2cc3nc(-c4cccc5[nH]ncc45)nc(N4CCOCC4)c3s2)CC1 [pictilisib]
Procedure, shortened: as §1

[4] = compound: CS(=O)(=O)c1ccc(-c2cnc(N)c(C(=O)Nc3ccccc3)n2)cc1
Procedure, shortened: as §1

crizotinib = compound: C[C@@H](Oc1cc(-c2cnn(C3CCNCC3)c2)cnc1N)c1c(Cl)ccc(F)c1Cl [crizotinib]
Procedure, shortened: as §1

[5] = compound: C[C@@H]1COCCN1C2=NC(=NC(=C2)C3(CC3)S(=O)(=O)C)C4=C5C=CNC5=CC=C4
Procedure, shortened: as §1

[6] = compound: C[C@H](C1=CC=C(C=C1)C(=O)NC2=C3C=CNC3=NC=C2)N
Procedure, shortened: as §1

duvelisib = compound: C[C@H](Nc1ncnc2nc[nH]c12)c1cc2cccc(Cl)c2c(=O)n1-c1ccccc1 [duvelisib]
Procedure, shortened: as §1

gandotinib = compound: Cc1cc(Nc2cc(CN3CCOCC3)c3nc(C)c(Cc4ccc(Cl)cc4F)n3n2)n[nH]1 [gandotinib]
Procedure, shortened: as §1

tozasertib = compound: Cc1cc(Nc2cc(N3CCN(C)CC3)nc(Sc3ccc(NC(=O)C4CC4)cc3)n2)n[nH]1 [tozasertib]
Procedure, shortened: as §1

[7] = compound: Cc1cc(SCc2sc(-c3ccc(C(F)(F)F)cc3)nc2C)ccc1OCC(=O)O
Procedure, shortened: as §1

doramapimod = compound: Cc1ccc(-n2nc(C(C)(C)C)cc2NC(=O)Nc2ccc(OCCN3CCOCC3)c3ccccc23)cc1 [doramapimod]
Procedure, shortened: as §1

ispinesib = compound: Cc1ccc(C(=O)N(CCCN)[C@@H](c2nc3cc(Cl)ccc3c(=O)n2Cc2ccccc2)C(C)C)cc1 [ispinesib]
Procedure, shortened: as §1

Measured: log2 fold change

ALAD isoform 2 (UniProt P13716)
inactive: [1] 0.032 | filanesib -0.09 | zotarolimus 0.069 | idasanutlin -0.001 | alisertib 0.035 | [2] -0.006 | gefitinib -0.027 | [3] 0.021 | lapatinib 0.012 | pictilisib -0.026 | [4] -0.029 | crizotinib 0.035 | [5] 0.035 | [6] -0.057 | duvelisib 0.003 | gandotinib 0.013 | tozasertib -0.077 | [7] -0.064 | doramapimod -0.077 | ispinesib 0.123

AFTPH isoform 9 (UniProt Q6ULP2)
inactive: [1] -0.03 | filanesib 0.085 | zotarolimus 0.01 | idasanutlin 0.053 | alisertib -0.006 | [2] -0.001 | gefitinib 0.004 | [3] -0.053 | lapatinib -0.04 | pictilisib -0.17 | [4] 0.016 | crizotinib -0.011 | [5] 0.032 | [6] -0.066 | duvelisib -0.051 | gandotinib 0.019 | tozasertib 0.009 | [7] -0.011 | doramapimod 0.022 | ispinesib 0.01

AGL (UniProt P35573)
inactive: [1] 0.036 | filanesib 0.155 | zotarolimus 0.047 | idasanutlin 0.177 | alisertib -0.024 | [2] -0.181 | gefitinib 0.027 | [3] -0.13 | lapatinib 0.082 | pictilisib 0.186 | [4] -0.021 | crizotinib -0.114 | [5] -0.269 | [6] 0.226 | duvelisib -0.156 | gandotinib 0.101 | tozasertib 0.012 | [7] 0.093 | doramapimod 0.101 | ispinesib -0.166

Reprinted from the results shown (two entries):
ALAD isoform 2 (UniProt P13716)
inactive: [1] 0.032 | filanesib -0.09 | zotarolimus 0.069 | idasanutlin -0.001 | alisertib 0.035 | [2] -0.006 | gefitinib -0.027 | [3] 0.021 | lapatinib 0.012 | pictilisib -0.026 | [4] -0.029 | crizotinib 0.035 | [5] 0.035 | [6] -0.057 | duvelisib 0.003 | gandotinib 0.013 | tozasertib -0.077 | [7] -0.064 | doramapimod -0.077 | ispinesib 0.123

AFTPH isoform 9 (UniProt Q6ULP2)
inactive: [1] -0.03 | filanesib 0.085 | zotarolimus 0.01 | idasanutlin 0.053 | alisertib -0.006 | [2] -0.001 | gefitinib 0.004 | [3] -0.053 | lapatinib -0.04 | pictilisib -0.17 | [4] 0.016 | crizotinib -0.011 | [5] 0.032 | [6] -0.066 | duvelisib -0.051 | gandotinib 0.019 | tozasertib 0.009 | [7] -0.011 | doramapimod 0.022 | ispinesib 0.01

Later entries

AK3 (UniProt Q9UIJ7)
inactive: [1] -0.071 | filanesib -0.042 | zotarolimus -0.019 | idasanutlin -0.055 | alisertib 0.006 | [2] 0.034 | gefitinib 0.006 | [3] 0.077 | lapatinib -0.035 | pictilisib 0.065 | [4] 0.029 | crizotinib 0.055 | [5] 0.057 | [6] -0.033 | duvelisib 0.04 | gandotinib -0.046 | tozasertib 0.007 | [7] -0.032 | doramapimod -0.021 | ispinesib 0.038

ADI1 (UniProt Q9BV57)
inactive: [1] -0.176 | filanesib 0.084 | zotarolimus -0.03 | idasanutlin -0.007 | alisertib -0.001 | [2] 0.087 | gefitinib 0.021 | [3] 0.011 | lapatinib -0.067 | pictilisib 0.121 | [4] 0.012 | crizotinib 0.08 | [5] 0.005 | [6] 0.022 | duvelisib -0.038 | gandotinib 0.038 | tozasertib 0.092 | [7] -0.13 | doramapimod 0.078 | ispinesib 0.074

AKAP12 (UniProt Q02952)
inactive: [1] -0.257 | filanesib -0.01 | zotarolimus -0.056 | idasanutlin 0.186 | alisertib 0.059 | [2] 0.031 | gefitinib -0.071 | [3] 0.084 | lapatinib -0.004 | pictilisib 0.202 | [4] 0.024 | crizotinib 0.033 | [5] -0.039 | [6] 0.048 | duvelisib 0.046 | gandotinib -0.033 | tozasertib -0.021 | [7] 0.053 | doramapimod -0.085 | ispinesib -0.049

AIFM1 (UniProt O95831)
inactive: [1] -0.021 | filanesib -0.07 | zotarolimus -0.028 | idasanutlin -0.027 | alisertib -0.046 | [2] -0.005 | gefitinib 0.02 | [3] 0.03 | lapatinib -0.03 | pictilisib 0.015 | [4] -0.003 | crizotinib 0.069 | [5] 0.002 | [6] -0.056 | duvelisib 0.026 | gandotinib -0.036 | tozasertib -0.009 | [7] -0.039 | doramapimod -0.019 | ispinesib 0.026

ALDH5A1 isoform 2 (UniProt P51649)
inactive: [1] 0.055 | filanesib -0.032 | zotarolimus -0.037 | idasanutlin -0.034 | alisertib 0.003 | [2] -0.045 | gefitinib 0.003 | [3] 0.041 | lapatinib 0.042 | pictilisib -0.002 | [4] 0.016 | crizotinib 0.052 | [5] 0.071 | [6] -0.107 | duvelisib 0.039 | gandotinib 0 | tozasertib -0.009 | [7] -0.031 | doramapimod -0.07 | ispinesib 0.009

ALDH4A1 (UniProt P30038)
inactive: [1] 0.05 | filanesib -0.144 | zotarolimus 0.064 | idasanutlin -0.037 | alisertib 0.044 | [2] -0.028 | gefitinib 0.028 | [3] 0.043 | lapatinib 0.007 | pictilisib 0.038 | [4] 0.024 | crizotinib 0 | [5] 0.063 | [6] -0.126 | duvelisib 0.002 | gandotinib 0.036 | tozasertib -0.035 | [7] -0.008 | doramapimod 0.01 | ispinesib -0.084

ALDOC (UniProt P09972)
inactive: [1] 0.029 | filanesib -0.019 | zotarolimus -0.001 | idasanutlin 0.003 | alisertib 0.002 | [2] -0.001 | gefitinib 0 | [3] 0.135 | lapatinib 0.001 | pictilisib 0.064 | [4] -0.002 | crizotinib 0.003 | [5] 0.024 | [6] -0.093 | duvelisib -0.021 | gandotinib 0.05 | tozasertib -0.021 | [7] -0.029 | doramapimod -0.022 | ispinesib 0.008

AGO4 (UniProt Q9HCK5)
inactive: [1] -0.038 | filanesib 0.131 | zotarolimus -0.038 | idasanutlin -0.015 | alisertib -0.033 | [2] 0.041 | gefitinib -0.022 | [3] 0.027 | lapatinib 0.053 | pictilisib 0 | [4] -0.072 | crizotinib 0.073 | [5] -0.084 | [6] 0.047 | duvelisib 0.038 | gandotinib -0.032 | tozasertib 0.022 | [7] 0.029 | doramapimod -0.044 | ispinesib -0.005

ALDH1A1 (UniProt P00352)
inactive: [1] 0.096 | filanesib -0.073 | zotarolimus 0.014 | idasanutlin -0.059 | alisertib -0.038 | [2] 0.041 | gefitinib 0.016 | [3] 0.043 | lapatinib 0.002 | pictilisib 0.139 | [4] 0.154 | crizotinib 0.092 | [5] 0.033 | [6] -0.06 | duvelisib 0.006 | gandotinib 0.019 | tozasertib -0.015 | [7] 0.028 | doramapimod -0.022 | ispinesib 0.067

ALDH1A2 (UniProt O94788)
inactive: [1] 0.047 | filanesib -0.074 | zotarolimus -0.009 | idasanutlin -0.026 | alisertib 0.001 | [2] -0.003 | gefitinib 0.016 | [3] 0.058 | lapatinib -0.004 | pictilisib 0.091 | [4] 0.092 | crizotinib 0.026 | [5] 0.014 | [6] -0.058 | duvelisib 0.023 | gandotinib -0.033 | tozasertib -0.022 | [7] -0.014 | doramapimod -0.014 | ispinesib 0.071

ALG10B (UniProt Q5I7T1)
inactive: [1] -0.012 | filanesib -0.077 | zotarolimus -0.1 | idasanutlin -0.048 | alisertib -0.024 | [2] 0.024 | gefitinib -0.006 | [3] 0.15 | lapatinib 0.017 | pictilisib 0.01 | [4] -0.048 | crizotinib -0.076 | [5] -0.048 | [6] -0.027 | duvelisib 0.003 | gandotinib -0.101 | tozasertib -0.024 | [7] 0.007 | doramapimod 0.091 | ispinesib -0.007

ALG6 (UniProt Q9Y672)
inactive: [1] -0.018 | filanesib -0.161 | zotarolimus -0.152 | idasanutlin -0.13 | alisertib -0.053 | [2] -0.017 | gefitinib -0.084 | [3] 0.104 | lapatinib -0.006 | pictilisib 0.058 | [4] 0.053 | crizotinib -0.206 | [5] 0.068 | [6] -0.052 | duvelisib 0.022 | gandotinib -0.079 | tozasertib -0.139 | [7] -0.045 | doramapimod 0.03
